Sequences of proteins named here, by UniProt entry; tags and fusion partners are left off. A change or cut given only in a name is not applied to a line headed by its entry.
UniProt Q9VWE4: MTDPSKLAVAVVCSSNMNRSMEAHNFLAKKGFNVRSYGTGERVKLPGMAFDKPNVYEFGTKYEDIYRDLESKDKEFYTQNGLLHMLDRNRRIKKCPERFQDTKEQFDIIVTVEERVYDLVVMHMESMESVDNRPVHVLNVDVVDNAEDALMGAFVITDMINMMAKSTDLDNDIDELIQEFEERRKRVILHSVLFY

In publication PMC5437310:

Target: T1, D. melanogaster symplekin (residues 19-351) (Drosophila melanogaster) (UniProt Q8MSU4)
T1 sequence: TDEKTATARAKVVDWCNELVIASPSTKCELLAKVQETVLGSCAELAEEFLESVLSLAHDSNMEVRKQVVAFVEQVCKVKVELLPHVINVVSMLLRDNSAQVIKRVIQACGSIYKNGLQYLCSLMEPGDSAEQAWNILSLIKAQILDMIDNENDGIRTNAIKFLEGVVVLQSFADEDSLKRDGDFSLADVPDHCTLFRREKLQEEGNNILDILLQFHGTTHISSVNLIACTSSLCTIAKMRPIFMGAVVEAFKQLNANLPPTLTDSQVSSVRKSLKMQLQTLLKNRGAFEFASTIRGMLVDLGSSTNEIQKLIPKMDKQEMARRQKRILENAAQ
Experiment: SEC; Ssu72 and symplekin incubated at a molar ratio of 1:1.5 overnight at 4 °C in a dialysis bag; complex separated from unbound protein on Superdex-200; complex formation verified by SDS-PAGE; both purified

Q: With “D. melanogaster Ssu72 phosphatase (from UniProt Q9VWE4) (enzyme)” as the substance, how does the binding read?
A: binds

These are yes or no findings as the source states them, for the method shown. Binding calls can cover weak binding; strength is not graded here.
